According to the supplement of paper PMC12067093, “Discovery and optimisation of a covalent ligand for TRIM25 and its application to targeted protein ubiquitination” (Chemical Science, 2025):
This is one part of the list.

The chains behind the UniProt entries cited, without tags or fusion partners. Where a name states a change or a piece, a line headed by the entry shows the natural chain unless it says otherwise.
UniProt Q9UQ80: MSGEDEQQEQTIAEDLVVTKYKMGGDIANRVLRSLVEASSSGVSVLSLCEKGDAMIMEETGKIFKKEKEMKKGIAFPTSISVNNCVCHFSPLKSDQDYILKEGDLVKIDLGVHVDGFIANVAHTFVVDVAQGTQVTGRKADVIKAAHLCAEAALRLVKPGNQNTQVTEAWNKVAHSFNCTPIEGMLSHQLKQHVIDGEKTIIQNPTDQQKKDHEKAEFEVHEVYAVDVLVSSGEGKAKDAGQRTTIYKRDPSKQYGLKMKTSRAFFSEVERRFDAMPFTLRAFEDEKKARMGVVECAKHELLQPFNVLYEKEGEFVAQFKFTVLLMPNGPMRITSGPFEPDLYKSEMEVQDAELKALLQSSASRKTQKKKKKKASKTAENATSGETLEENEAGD
UniProt P51003: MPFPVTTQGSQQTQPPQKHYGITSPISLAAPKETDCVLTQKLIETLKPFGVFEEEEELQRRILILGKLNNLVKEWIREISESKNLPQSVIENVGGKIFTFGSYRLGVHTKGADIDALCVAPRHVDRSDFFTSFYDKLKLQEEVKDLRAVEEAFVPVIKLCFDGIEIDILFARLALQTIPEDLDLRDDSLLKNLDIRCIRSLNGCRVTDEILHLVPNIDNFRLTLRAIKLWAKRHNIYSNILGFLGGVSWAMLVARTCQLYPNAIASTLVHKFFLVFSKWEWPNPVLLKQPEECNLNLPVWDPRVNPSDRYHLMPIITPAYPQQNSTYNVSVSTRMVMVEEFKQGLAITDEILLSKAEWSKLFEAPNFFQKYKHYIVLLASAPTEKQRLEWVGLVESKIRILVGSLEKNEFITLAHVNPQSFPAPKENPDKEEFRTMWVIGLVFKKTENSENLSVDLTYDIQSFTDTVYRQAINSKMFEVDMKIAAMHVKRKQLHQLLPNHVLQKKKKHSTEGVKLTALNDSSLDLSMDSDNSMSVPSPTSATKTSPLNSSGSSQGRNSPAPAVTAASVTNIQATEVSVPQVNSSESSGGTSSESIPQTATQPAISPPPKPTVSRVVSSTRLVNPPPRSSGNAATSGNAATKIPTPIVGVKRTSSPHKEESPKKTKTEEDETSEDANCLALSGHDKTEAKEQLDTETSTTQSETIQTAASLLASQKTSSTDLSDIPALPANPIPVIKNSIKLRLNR
UniProt Q92882: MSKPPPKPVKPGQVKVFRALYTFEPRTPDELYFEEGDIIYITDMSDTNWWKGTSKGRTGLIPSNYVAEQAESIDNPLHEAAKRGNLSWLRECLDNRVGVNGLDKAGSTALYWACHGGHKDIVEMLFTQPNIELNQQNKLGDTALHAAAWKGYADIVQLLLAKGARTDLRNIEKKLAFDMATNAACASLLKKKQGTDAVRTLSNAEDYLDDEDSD
UniProt Q9H1P3, whole entry, looked up: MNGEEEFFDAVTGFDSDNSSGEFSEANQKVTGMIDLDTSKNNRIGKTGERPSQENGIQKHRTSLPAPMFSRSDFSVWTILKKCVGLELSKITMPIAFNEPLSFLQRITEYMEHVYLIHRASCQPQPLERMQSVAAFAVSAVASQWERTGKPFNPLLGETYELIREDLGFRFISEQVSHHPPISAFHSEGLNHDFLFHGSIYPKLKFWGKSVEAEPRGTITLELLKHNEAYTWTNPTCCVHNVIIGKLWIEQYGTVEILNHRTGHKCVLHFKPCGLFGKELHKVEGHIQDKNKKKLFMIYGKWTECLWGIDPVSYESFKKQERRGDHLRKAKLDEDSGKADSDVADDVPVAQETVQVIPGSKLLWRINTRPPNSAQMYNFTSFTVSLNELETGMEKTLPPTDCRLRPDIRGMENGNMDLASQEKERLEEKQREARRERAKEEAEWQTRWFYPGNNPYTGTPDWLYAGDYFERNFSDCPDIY
UniProt Q9NXG6: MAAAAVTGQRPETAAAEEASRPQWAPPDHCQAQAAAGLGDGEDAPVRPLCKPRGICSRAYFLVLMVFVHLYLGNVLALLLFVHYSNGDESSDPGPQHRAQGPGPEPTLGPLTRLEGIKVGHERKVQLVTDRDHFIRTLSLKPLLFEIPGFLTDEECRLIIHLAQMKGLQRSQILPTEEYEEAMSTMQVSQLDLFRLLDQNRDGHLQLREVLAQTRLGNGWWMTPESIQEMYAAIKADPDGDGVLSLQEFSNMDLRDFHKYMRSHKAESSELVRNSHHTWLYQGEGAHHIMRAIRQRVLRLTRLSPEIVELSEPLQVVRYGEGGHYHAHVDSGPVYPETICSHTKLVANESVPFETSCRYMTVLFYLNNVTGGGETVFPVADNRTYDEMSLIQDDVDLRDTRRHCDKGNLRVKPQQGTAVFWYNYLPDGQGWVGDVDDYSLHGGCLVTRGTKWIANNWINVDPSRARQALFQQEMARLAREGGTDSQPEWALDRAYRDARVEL
UniProt P07237: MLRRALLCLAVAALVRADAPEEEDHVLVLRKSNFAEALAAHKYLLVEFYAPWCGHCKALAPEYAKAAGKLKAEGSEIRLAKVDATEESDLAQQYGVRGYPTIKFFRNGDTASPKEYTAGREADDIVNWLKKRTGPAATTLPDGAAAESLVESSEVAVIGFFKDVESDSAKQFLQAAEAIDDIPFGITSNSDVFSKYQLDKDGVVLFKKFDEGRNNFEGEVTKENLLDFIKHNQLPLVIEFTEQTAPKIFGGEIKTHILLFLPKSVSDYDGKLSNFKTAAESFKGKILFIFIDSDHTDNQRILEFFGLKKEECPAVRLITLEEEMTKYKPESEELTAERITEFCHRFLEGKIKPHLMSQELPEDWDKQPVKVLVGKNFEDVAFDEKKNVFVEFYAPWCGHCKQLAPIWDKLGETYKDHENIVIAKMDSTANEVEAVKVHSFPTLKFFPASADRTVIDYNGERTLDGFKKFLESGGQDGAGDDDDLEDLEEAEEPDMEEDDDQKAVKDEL
UniProt P32242: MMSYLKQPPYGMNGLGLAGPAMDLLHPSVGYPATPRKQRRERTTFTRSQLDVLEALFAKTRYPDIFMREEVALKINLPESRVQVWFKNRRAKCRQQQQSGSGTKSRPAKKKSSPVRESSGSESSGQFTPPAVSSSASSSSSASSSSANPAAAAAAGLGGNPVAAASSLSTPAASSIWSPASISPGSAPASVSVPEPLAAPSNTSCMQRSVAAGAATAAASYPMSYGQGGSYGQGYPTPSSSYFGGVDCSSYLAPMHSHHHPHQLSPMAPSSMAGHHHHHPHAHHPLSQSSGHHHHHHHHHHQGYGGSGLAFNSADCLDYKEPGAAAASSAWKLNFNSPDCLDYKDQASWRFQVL
UniProt Q96FW1, whole entry, looked up: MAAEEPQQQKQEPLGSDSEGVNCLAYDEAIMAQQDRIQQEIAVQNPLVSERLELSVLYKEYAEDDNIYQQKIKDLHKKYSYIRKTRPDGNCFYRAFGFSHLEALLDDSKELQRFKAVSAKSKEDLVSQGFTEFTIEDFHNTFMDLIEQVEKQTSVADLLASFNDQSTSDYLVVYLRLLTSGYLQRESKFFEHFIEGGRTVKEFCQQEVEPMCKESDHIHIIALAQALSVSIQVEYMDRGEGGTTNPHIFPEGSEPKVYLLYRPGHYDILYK
UniProt Q504Q3: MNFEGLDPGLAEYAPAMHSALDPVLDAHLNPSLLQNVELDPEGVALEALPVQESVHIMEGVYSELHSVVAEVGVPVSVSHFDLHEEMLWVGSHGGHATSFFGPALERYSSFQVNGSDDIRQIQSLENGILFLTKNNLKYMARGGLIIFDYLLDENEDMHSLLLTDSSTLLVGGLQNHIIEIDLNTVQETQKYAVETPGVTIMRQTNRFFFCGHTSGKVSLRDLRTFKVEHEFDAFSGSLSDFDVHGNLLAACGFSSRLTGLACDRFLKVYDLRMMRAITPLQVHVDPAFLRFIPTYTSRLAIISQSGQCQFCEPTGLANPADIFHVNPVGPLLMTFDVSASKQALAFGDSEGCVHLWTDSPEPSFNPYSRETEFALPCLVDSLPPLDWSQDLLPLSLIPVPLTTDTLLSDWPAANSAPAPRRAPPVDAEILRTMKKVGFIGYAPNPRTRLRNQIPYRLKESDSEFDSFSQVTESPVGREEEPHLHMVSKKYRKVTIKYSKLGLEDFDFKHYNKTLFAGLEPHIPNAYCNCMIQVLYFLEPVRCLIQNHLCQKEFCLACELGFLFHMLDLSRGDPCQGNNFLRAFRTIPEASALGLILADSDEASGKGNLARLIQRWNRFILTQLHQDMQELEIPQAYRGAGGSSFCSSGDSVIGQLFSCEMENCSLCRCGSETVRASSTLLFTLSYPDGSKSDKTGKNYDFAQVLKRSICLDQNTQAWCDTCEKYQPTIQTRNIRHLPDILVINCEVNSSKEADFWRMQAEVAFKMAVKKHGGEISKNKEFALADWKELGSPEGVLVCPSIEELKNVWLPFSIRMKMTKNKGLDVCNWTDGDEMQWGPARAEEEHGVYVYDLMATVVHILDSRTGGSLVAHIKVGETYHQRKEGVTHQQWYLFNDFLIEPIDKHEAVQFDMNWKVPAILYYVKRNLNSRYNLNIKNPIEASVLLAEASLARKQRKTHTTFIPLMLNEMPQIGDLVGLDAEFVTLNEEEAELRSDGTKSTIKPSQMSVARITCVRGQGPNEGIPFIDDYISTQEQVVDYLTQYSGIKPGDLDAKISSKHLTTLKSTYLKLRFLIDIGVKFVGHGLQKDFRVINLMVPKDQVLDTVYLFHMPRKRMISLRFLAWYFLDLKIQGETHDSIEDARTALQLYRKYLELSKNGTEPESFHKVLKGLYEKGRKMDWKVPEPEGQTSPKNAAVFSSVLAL
UniProt O43929: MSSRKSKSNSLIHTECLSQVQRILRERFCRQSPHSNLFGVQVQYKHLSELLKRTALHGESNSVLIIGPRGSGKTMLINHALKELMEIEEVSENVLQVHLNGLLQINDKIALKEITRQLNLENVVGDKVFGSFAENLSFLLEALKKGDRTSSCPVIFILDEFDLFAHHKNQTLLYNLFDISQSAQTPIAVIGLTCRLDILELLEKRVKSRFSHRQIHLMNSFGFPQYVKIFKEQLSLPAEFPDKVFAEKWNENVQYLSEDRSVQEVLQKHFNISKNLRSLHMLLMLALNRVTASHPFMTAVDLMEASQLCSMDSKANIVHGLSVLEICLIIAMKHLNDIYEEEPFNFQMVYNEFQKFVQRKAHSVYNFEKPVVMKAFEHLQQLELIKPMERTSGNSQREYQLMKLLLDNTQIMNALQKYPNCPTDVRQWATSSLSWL
UniProt Q99497, whole entry, looked up: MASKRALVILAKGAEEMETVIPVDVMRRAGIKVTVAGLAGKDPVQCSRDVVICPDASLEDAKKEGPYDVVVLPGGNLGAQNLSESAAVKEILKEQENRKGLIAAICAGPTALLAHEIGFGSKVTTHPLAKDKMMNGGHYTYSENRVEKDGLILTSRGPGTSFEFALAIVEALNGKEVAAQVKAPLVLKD
UniProt O96013: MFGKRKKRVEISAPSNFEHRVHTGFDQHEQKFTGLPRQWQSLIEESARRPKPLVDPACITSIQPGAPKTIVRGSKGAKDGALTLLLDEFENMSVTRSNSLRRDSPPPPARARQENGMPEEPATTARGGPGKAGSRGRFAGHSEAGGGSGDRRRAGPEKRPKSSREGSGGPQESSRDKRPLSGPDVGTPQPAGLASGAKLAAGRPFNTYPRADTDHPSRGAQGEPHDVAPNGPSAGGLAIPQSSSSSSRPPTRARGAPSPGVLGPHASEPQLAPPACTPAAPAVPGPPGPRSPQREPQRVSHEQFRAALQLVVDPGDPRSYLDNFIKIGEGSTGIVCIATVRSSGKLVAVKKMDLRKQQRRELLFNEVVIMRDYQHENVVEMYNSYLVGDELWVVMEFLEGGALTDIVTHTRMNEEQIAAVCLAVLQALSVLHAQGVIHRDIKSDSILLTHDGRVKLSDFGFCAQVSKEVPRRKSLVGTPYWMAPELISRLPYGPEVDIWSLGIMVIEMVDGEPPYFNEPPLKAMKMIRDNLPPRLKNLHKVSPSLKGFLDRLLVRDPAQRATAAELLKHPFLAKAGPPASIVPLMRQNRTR
UniProt Q9UBD5: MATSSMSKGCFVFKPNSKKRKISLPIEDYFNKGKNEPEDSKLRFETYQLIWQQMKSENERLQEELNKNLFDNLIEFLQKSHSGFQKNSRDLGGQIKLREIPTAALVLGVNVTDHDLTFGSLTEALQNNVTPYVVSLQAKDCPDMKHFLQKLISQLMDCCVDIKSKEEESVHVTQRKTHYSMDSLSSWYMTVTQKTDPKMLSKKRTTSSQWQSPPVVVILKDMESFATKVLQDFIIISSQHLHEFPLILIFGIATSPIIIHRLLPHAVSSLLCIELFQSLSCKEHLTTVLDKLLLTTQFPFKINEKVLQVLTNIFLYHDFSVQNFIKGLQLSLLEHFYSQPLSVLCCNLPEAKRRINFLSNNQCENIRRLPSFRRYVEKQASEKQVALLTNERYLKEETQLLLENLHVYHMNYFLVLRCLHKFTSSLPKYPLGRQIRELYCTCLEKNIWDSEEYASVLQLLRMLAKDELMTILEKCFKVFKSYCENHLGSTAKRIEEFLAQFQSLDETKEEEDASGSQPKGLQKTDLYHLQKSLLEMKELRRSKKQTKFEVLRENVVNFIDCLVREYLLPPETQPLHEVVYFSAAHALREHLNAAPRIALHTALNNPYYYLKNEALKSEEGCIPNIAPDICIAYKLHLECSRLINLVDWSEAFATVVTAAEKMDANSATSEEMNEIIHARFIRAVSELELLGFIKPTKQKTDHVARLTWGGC

Compound: Cc1cc(ccc1-c1ccccc1)C(=O)N1CCCN(CC1)C(=O)CCl [compound 10]
Experiment: probe-labelled cysteine peptide fold change vs DMSO (competition) (log2 fold change); higher = less target engagement (more negative = stronger competition)
Conditions: THP-1, incubation time: 4 h
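Also: competitive profiling in live THP-1 cells: cysteine peptides tagged with an iodoacetamide desthiobiotin (IA-DTB) probe, intensity after compound treatment relative to DMSO-treated cells.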

Target | probe-labelled cysteine peptide fold change (10 µM) | probe-labelled cysteine peptide fold change (50 µM)
OSBPL1A_Q9BXW6_182_TTELTALLNRPNPPDVNCSDQLGNTPLHCAAYR (UniProt Q9BXW6) | 0.0266 | -0.0898
PAG1_Q9NWQ8_355_SPSSCNDLYATVK (UniProt Q9NWQ8) | -0.172 | -0.331
PA2G4_Q9UQ80_296_MGVVECAKHELLQPFNVLYEK (UniProt Q9UQ80) | -0.532 | -0.895
PAPOLA_P51003_293_QPEECNLNLPVWDPR (UniProt P51003) | -0.15 | 0.328
PAFAH2_Q99487_298_ICAQHEQSR (UniProt Q99487) | 0.124 | 0.261
OSTF1_Q92882_185_LAFDMATNAACASLLKK (UniProt Q92882) | 0.166 | -0.411
OSBPL2_Q9H1P3_266_CVLHFKPCGLFGK (UniProt Q9H1P3) | -0.0954 | -0.115
P4HTM_Q9NXG6_156_TLSLKPLLFEIPGFLTDEECR (UniProt Q9NXG6) | 0.0255 | -0.0987
OSBPL1A_Q9BXW6_520_DCGGGDALSNGIK (UniProt Q9BXW6) | -0.148 | -0.0947
OSBPL9_Q96SU4_577_SILTVPWVELGGECNINCSK (UniProt Q96SU4) | 0.18 | 0.231
P4HB_P07237_400_NVFVEFYAPWCGHCK (UniProt P07237) | -0.267 | -0.626
OTX1_P32242_340_LNFNSPDCLDYK (UniProt P32242) | 0.0785 | 0.355
OTUB1_Q96FW1_91_KTRPDGNCFYR (UniProt Q96FW1) | -0.294 | -0.907
PAICS_P22234_100_CGETAFIAPQCEMIPIEWVCR (UniProt P22234) | 0.0469 | -0.0381
PAOX_Q6QHF9_33_LCGHSAFPHLR (UniProt Q6QHF9) | 0.266 | -0.0447
P4HA2_O15460_504_HAACPVLVGCK (UniProt O15460) | -0.105 | -0.0142
PAN2_Q504Q3_745_HLPDILVINCEVNSSK (UniProt Q504Q3) | 0.0787 | 0.0627
PAPSS2_O95340_350_VWGTTCTK (UniProt O95340) | -0.0315 | -0.256
PABPC1_P11940_132_VVCDENGSK (UniProt P11940) | -0.073 | -0.183
ORC4_O43929_421_YPNCPTDVR (UniProt O43929) | -0.16 | 0.00602
PARK7_Q99497_53_DVVICPDASLEDAKK (UniProt Q99497) | -0.244 | -0.143
PAK4_O96013_462_LSDFGFCAQVSK (UniProt O96013) | 0.0919 | 0.124
ORC3_Q9UBD5_639_LHLECSR (UniProt Q9UBD5) | 0.139 | 0.341
OVCA2_Q8WZ82_64_SDFGSCPPEEQPR (UniProt Q8WZ82) | -0.168 | -0.173

Another view of part of the listing above:
Target	probe-labelled cysteine peptide fold change (10 µM)	probe-labelled cysteine peptide fold change (50 µM)
OTUB1_Q96FW1_91_KTRPDGNCFYR (UniProt Q96FW1)	-0.294	-0.907
ORC3_Q9UBD5_639_LHLECSR (UniProt Q9UBD5)	0.139	0.341
